Record: PubChem BioAssay AID743454 (Peter MacCallum Cancer Centre, 2014)
The deposit covers about 18,000 reagents; shown is a random part of them. In the full data, 450 (2.5%) got an active call. 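Single biological run; no consistent viability z cut-off exists, so the class columns, not z-scores, define the calls.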

Aim: 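Knock-downs lowering viability or raising caspase 3/7 activity in vorinostat-treated resistant cells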 (primary screen)
Cell system: human HCT116-VR colon cancer cells, selected for vorinostat resistance
Reagent: siRNA pool against human genes, 40 nM siRNA pool
Timing: vorinostat for 24 h, read-out about 72 h after transfection
Treatment: vorinostat at 2.5 µM final
Read-out: 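Two measures, CellTiter-Fluor viability and luminescent caspase 3/7 activity, each as fold change against same-plate mock wells, mean of duplicates, then screen-wide robust z-score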
Scale: viability robust z-score: higher = more viable cells than screen typical; caspase robust z-score: higher = more caspase 3/7 activity than screen typical
Hit rule: 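Hits are knock-downs in viability class RV1/RV2 or caspase class CA1/CA2, excluding ones that killed cells in the no-drug cell-count arm; hits then retested with single siRNAs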

Against CLMP the deposit lists viability hit class no change; caspase hit class no change; viability robust z-score 1.24; caspase robust z-score -0.06; inactive.
Against SCARF2, the values are viability hit class no change; caspase hit class no change; viability robust z-score 0.06; caspase robust z-score -0.04; inactive.
Knock-down of TMEM207 gave: viability hit class no change; caspase hit class no change; viability robust z-score -0.69; caspase robust z-score -0.56; inactive.
Silencing of CD24 resulted in: viability hit class no change; caspase hit class no change; viability robust z-score -1.6; caspase robust z-score 2.62; inactive.
With knock-down of CTIF the results were viability hit class RV2 (reduced viability); caspase hit class no change; viability robust z-score -3.45; caspase robust z-score 0.93; active.
After knock-down of CPEB4, the screen gave viability hit class no change; caspase hit class no change; viability robust z-score -0.78; caspase robust z-score 0.28; inactive.
CD53 scored viability hit class no change; caspase hit class no change; viability robust z-score -0.83; caspase robust z-score -0.82; inactive.
For LIN9, the entry reads viability hit class no change; caspase hit class no change; viability robust z-score -0.41; caspase robust z-score 1.02; inactive.
Knock-down of CCL19 gave: viability hit class no change; caspase hit class no change; viability robust z-score 0.24; caspase robust z-score 0.36; inactive.
Against BAZ1B the deposit lists viability hit class no change; caspase hit class no change; viability robust z-score 0.63; caspase robust z-score 0.04; inactive.
Silencing of ALPK1 resulted in: viability hit class no change; caspase hit class no change; viability robust z-score -0.2; caspase robust z-score 0.77; inactive.
P2RX1 scored viability hit class no change; caspase hit class no change; viability robust z-score -1.84; caspase robust z-score 5.04; inactive.

Just “viability hit class”, for 2 of the entries above:
CCL19 = no change
BAZ1B = no change
